Results on one molecule are retold here after US20150284768A1.

Assay [1] addresses wild type (WT) Hermes Transposase (Musca domestica). The experiment in a line: size-exclusion chromatography and sedimentation equilibrium; self-association. For orientation: SEC sorts molecules by how far they enter the pores of the column.
Assay [2] has the same target. The experiment in a line: oligomeric state in solution (FIG. 4 diagram); self-association.

Results are given in words; binding and its absence hold for the method and conditions named. Some results given as binding are weak or reduced against the parent protein; the word gives no strength.

B1: wild type (WT) Hermes Transposase (enzyme)
chain: MQKMDNLEVKAKINQGLYKITPRHKGTSFIWNVLADIQKEDDTLVEGWVFCRKCEKVLKYTTRQTSNLCRHKCCASLKQSRELKTVSADCKKEAIEKCAQWVVRDCRPFSAVSGSGFIDMIKFFIKVGAEYGEHVNVEELLPSPITLSRKVTSDAKEKKALISREIKSAVEKDGASATIDLWTDNYIKRNFLGVTLHYHENNELRDLILGLKSLDFERSTAENIYKKLKAIFLQFNVEDLSSIKFVTDRGANVVKSLANNIRINCSSHLLSNVLENSFEETPELNVPILACKNIVKYFKKANLQHRLRSSLKSECPTRWNSTYTMLRSILDNWESVIQILSEAGETQRIVHINKSIIQTMVNILDGFERIFKELQTCSSPSLCFVVPSILKVKEICSPDVGDVADIAKLKVNIIKNVRIIWEENLSIWHYTAFFFYPPALHMQQEKVAQIKEFCLSKMEDLELINRMSSFNELSATQLNQSDSNSHNSIDLTSHSKDISTTSFFFPQLTQNNSREPPVCPSDEFEFYRKEIVILSEDFKVMEWWNLNSKKYPKLSKLALSLLSIPASSAASERTFSLAGNIITEKRNRIGQQTVDSLLFLNSFYKNFCKLDI
Take B1: the binding result in assay [1] and in assay [2] was “binds” in each case.
